# Experimental data: the supplement of paper PMC8728848
# The other results are listed elsewhere or left out.
# B1: CD34 (Homo sapiens), P28906 (protein)
# chain: MGSSHHHHHHSSGLVPRGSHMSTSLATSPTKPYTSSSPILSDIKAEIKCSGIREVKLTQGICLEQNKTSSCAEFKKDRGEGLARVLCGEEQADADAGAQVCSLLLAQSEVRPQCLLLVLANRTEISSKLQLMKKHQSDLKKLGILDFTEQDVASHQSYSQKT
# Tests used:
# Test in all cases: glycan array binding signal (z-score within array); higher = stronger binding
# Details in all cases: glycan notation: IUPAC condensed, linker removed
# Fuc(a1-2)Gal = biological target: Fuc(a1-2)Gal
# Outline: (§1)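 Glycan array data came from 3228 arrays in the Consortium for Functional Glycomics database, and only arrays with an available protein sequence were kept. Glycan names were put into IUPAC-condensed notation, and columns mapping to the same glycan were averaged. The binding signal is a within-array Z-score, averaged across arrays of one protein sequence run at different concentrations or buffers and across linkers. A negative Z-score can be read as non-binding.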
# Fuc(a1-2)Gal(b1-3)GalNAc = biological target: Fuc(a1-2)Gal(b1-3)GalNAc
# Outline: as §1
# [1] = biological target: Fuc(a1-2)Gal(b1-3)GalNAc(a1-3)[Fuc(a1-2)]Gal(b1-4)Glc
# Outline: as §1
# [2] = biological target: Fuc(a1-2)Gal(b1-3)GalNAc(a1-3)[Fuc(a1-2)]Gal(b1-4)GlcNAc
# Outline: as §1
# [3] = biological target: Fuc(a1-2)Gal(b1-3)GalNAc(b1-3)Gal
# Outline: as §1
# [4] = biological target: Fuc(a1-2)Gal(b1-3)GalNAc(b1-3)Gal(a1-4)Gal(b1-4)Glc
# Outline: as §1
# [5] = biological target: Fuc(a1-2)Gal(b1-3)GalNAc(b1-4)[Neu5Ac(a2-3)]Gal(b1-4)Glc
# Outline: as §1
# Fuc(a1-2)Gal(b1-3)GlcNAc = biological target: Fuc(a1-2)Gal(b1-3)GlcNAc
# Outline: as §1
# [6] = biological target: Fuc(a1-2)Gal(b1-3)GlcNAc(b1-2)Man(a1-3)[Fuc(a1-2)Gal(b1-3)GlcNAc(b1-2)Man(a1-6)]Man(b1-4)GlcNAc(b1-4)GlcNAc
# Outline: as §1
# [7] = biological target: Fuc(a1-2)Gal(b1-3)GlcNAc(b1-2)Man(a1-3)[Fuc(a1-2)Gal(b1-3)GlcNAc(b1-2)Man(a1-6)]Man(b1-4)GlcNAc(b1-4)[Fuc(a1-6)]GlcNAc
# Outline: as §1
# [8] = biological target: Fuc(a1-2)Gal(b1-3)GlcNAc(b1-3)Gal(b1-4)Glc
# Outline: as §1
# [9] = biological target: Fuc(a1-2)Gal(b1-3)GlcNAc(b1-3)GalNAc
# Outline: as §1
# [10] = biological target: Fuc(a1-2)Gal(b1-3)GlcNAc(b1-3)[Fuc(a1-2)Gal(b1-3)GlcNAc(b1-6)]GalNAc
# Outline: as §1
# [11] = biological target: Fuc(a1-2)Gal(b1-3)GlcNAc(b1-3)[Gal(b1-4)GlcNAc(b1-6)]Gal(b1-4)Glc
# Outline: as §1
# [12] = biological target: Fuc(a1-2)Gal(b1-3)GlcNAc(b1-3)[Neu5Ac(a2-6)Gal(b1-4)GlcNAc(b1-6)]Gal(b1-4)Glc
# Outline: as §1
# [13] = biological target: Fuc(a1-2)Gal(b1-3)GlcNAc6S
# Outline: as §1
# [14] = biological target: Fuc(a1-2)Gal(b1-3)[Fuc(a1-4)]GlcNAc
# Outline: as §1
# [15] = biological target: Fuc(a1-2)Gal(b1-3)[Fuc(a1-4)]GlcNAc(b1-2)Man(a1-3)[Fuc(a1-2)Gal(b1-3)[Fuc(a1-4)]GlcNAc(b1-2)Man(a1-3)]Man(b1-4)GlcNAc(b1-4)GlcNAc
# Outline: as §1
# [16] = biological target: Fuc(a1-2)Gal(b1-3)[Fuc(a1-4)]GlcNAc(b1-2)Man(a1-3)[Fuc(a1-2)Gal(b1-3)[Fuc(a1-4)]GlcNAc(b1-2)Man(a1-6)]Man(b1-4)GlcNAc(b1-4)[Fuc(a1-6)]GlcNAc(b1-4)[Fuc(a1-6)]GlcNAc
# Outline: as §1
# [17] = biological target: Fuc(a1-2)Gal(b1-3)[Fuc(a1-4)]GlcNAc(b1-3)[Fuc(a1-3)[Gal(b1-4)]GlcNAc(b1-6)]Gal(b1-4)Glc
# Outline: as §1
# [18] = biological target: Fuc(a1-2)Gal(b1-3)[Fuc(a1-4)]GlcNAc(b1-3)[Gal(b1-4)GlcNAc(b1-6)]Gal(b1-4)Glc
# Outline: as §1
# [19] = biological target: Fuc(a1-2)Gal(b1-4)Fuc(a1-3)]GlcNAc(b1-2)Man(a1-3)[Fuc(a1-2)Gal(b1-4)[Fuc(a1-3)]GlcNAc(b1-2)Man(a1-6)]Man(b1-4)GlcNAc(b1-4)GlcNAc
# Outline: as §1
# Fuc(a1-2)Gal(b1-4)Glc = biological target: Fuc(a1-2)Gal(b1-4)Glc
# Outline: as §1
# Fuc(a1-2)Gal(b1-4)Glc6S = biological target: Fuc(a1-2)Gal(b1-4)Glc6S
# Outline: as §1
# Fuc(a1-2)Gal(b1-4)GlcNAc = biological target: Fuc(a1-2)Gal(b1-4)GlcNAc
# Outline: as §1
# [20] = biological target: Fuc(a1-2)Gal(b1-4)GlcNAc(b1-2)Man
# Outline: as §1
# [21] = biological target: Fuc(a1-2)Gal(b1-4)GlcNAc(b1-2)Man(a1-3)[Fuc(a1-2)Gal(b1-4)GlcNAc(b1-2)Man(a1-6)]Man(b1-4)GlcNAc(b1-4)GlcNAc
# Outline: as §1
# [22] = biological target: Fuc(a1-2)Gal(b1-4)GlcNAc(b1-2)Man(a1-3)[Fuc(a1-2)Gal(b1-4)GlcNAc(b1-2)Man(a1-6)]Man(b1-4)GlcNAc(b1-4)[Fuc(a1-6)]GlcNAc
# Outline: as §1
# [23] = biological target: Fuc(a1-2)Gal(b1-4)GlcNAc(b1-2)[Fuc(a1-2)Gal(b1-4)GlcNAc(b1-4)]Man(a1-3)[Fuc(a1-2)Gal(b1-4)GlcNAc(b1-2)Man(a1-6)]Man(b1-4)GlcNAc(b1-4)GlcNAc
# Outline: as §1
# [24] = biological target: Fuc(a1-2)Gal(b1-4)GlcNAc(b1-3)Gal(b1-4)GlcNAc
# Outline: as §1
binder,measurement,setting,value
B1,glycan array binding signal (z-score),Fuc(a1-2)Gal,1.08
same,glycan array binding signal (z-score),Fuc(a1-2)Gal(b1-3)GalNAc,-0.39
same,glycan array binding signal (z-score),[1],-1.43
same,glycan array binding signal (z-score),[2],0.537
same,glycan array binding signal (z-score),[3],0.62
same,glycan array binding signal (z-score),[4],0.043
same,glycan array binding signal (z-score),[5],0.184
same,glycan array binding signal (z-score),Fuc(a1-2)Gal(b1-3)GlcNAc,-0.415
same,glycan array binding signal (z-score),[6],0.966
same,glycan array binding signal (z-score),[7],-0.885
same,glycan array binding signal (z-score),[8],-0.338
same,glycan array binding signal (z-score),[9],0.208
same,glycan array binding signal (z-score),[10],0.022
same,glycan array binding signal (z-score),[11],-0.908
same,glycan array binding signal (z-score),[12],-0.731
same,glycan array binding signal (z-score),[13],0.261
same,glycan array binding signal (z-score),[14],-0.23
same,glycan array binding signal (z-score),[15],-0.119
same,glycan array binding signal (z-score),[16],0.077
same,glycan array binding signal (z-score),[17],-0.677
same,glycan array binding signal (z-score),[18],-1.33
same,glycan array binding signal (z-score),[19],1.89
same,glycan array binding signal (z-score),Fuc(a1-2)Gal(b1-4)Glc,-0.59
same,glycan array binding signal (z-score),Fuc(a1-2)Gal(b1-4)Glc6S,-0.176
same,glycan array binding signal (z-score),Fuc(a1-2)Gal(b1-4)GlcNAc,0.713
same,glycan array binding signal (z-score),[20],0.472
same,glycan array binding signal (z-score),[21],-0.664
same,glycan array binding signal (z-score),[22],0.603
same,glycan array binding signal (z-score),[23],-0.374
same,glycan array binding signal (z-score),[24],-1.49

# Part of the list above, set out differently:
binder | measurement | setting | value
B1 | glycan array binding signal (z-score) | [23] | -0.374
same | glycan array binding signal (z-score) | [24] | -1.49
